Data on six substances can be found in paper PMC5096027 (Chembiochem, 2016).

One series in a line: solid-phase peptide synthesis. Conditions: whole synthesis.
“Ac-Ala-(NMe-D-BrTyr)-(4-MePro-Tz)-(D-Leu)-(NMe-Phe)-Opp” gave an isolated yield of 2%.
Same read-out and setting: under “Piv-Ala-(NMe-D-BrTyr)-(4-MePro-Tz)-(D-Leu)-(NMe-Phe)-Opp” stands 2%.
Same read-out and setting: the value for “Piv-Ala-(NMe-D-BrTyr)-(4-MePro-Tz)-(D-Leu)-Ala-Opp” was 3%.
The same measure, in the same setting: the value for “Piv-Ala-(NMe-D-BrTyr)-(4-MePro-Tz)-Ala-(NMe-Phe)-Opp” was 8%; that for “Piv-Ala-Ala-(4-MePro-Tz)-(D-Leu)-(NMe-Phe)-Opp” was 3%.

The series is the same for the next values; noted with them: whole synthesis, overall.
For “Piv-Ala-(NMe-D-BrTyr)-(4-MePro-Tz)-(D-Leu)-(NMe-Phe)-Ala-NH2”, the isolated yield is reported as 16%.
